Screen size: about 360,000 compounds; about 9,100 (2.5%) were called active. This list was built around the results that the source calls inconclusive (neither active nor inactive); the mix of calls is not that of the screen. No stated cut-off is given here; in the data, active means max response below about -50%; inconclusive means no clear call, values can overlap the other calls; inactive means above that.
Each compound was assayed against D(3) dopamine receptor (Homo sapiens) (UniProt P35462) (assay: qHTS of D3 Dopamine Receptor Antagonist: qHTS). Conditions: D3R cells, DiscoveRx beta-arrestin luminescence, antagonist mode; stronger effect = lower value.
Summary of the method: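 Cells expressing the human receptor were seeded at 1500 cells/well, incubated overnight at 37 degrees C in 5% CO2, then exposed to library compounds with dopamine controls for 90 minutes at 37 degrees C before luminescent detection.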
On the % scale 0 is the no-effect control and ±100 the full control effect.

Amino acid sequences for entries named in this document (tags omitted).
UniProt P35462, whole entry, looked up: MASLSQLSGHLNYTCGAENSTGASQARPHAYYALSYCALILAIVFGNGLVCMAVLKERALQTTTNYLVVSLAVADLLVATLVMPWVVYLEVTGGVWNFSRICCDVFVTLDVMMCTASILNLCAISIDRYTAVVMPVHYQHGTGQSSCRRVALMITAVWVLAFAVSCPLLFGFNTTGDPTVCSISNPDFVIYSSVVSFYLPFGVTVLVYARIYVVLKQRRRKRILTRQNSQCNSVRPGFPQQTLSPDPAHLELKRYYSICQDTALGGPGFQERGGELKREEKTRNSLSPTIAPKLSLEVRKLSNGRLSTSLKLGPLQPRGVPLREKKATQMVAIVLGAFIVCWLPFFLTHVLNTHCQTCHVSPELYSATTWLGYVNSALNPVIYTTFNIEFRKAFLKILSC

Structure (SMILES)	max response, negative = inhibition
COc1ccc(NC(=O)N(CCC(C)C)C(C)c2ccccn2)c(OC)c1 (configuration not stated)	active: -53%
CCC(C)(C)n1nnnc1C(c1cccc(C#N)c1)N1CCN(c2cc(C)ccc2C)CC1 (configuration not stated)	active: -60.2%
COc1ccc(C2(C(=O)c3ccccc3)C(=O)c3ccccc3C2=O)cc1	inactive: -11.9%
CCCOc1ccc(F)cc1-c1cc(C(=O)NCCOC)[nH]n1	inconclusive: -30.4%
Cc1ccc(C)c(N2CCN(S(=O)(=O)c3ccc4c(c3)C(C)(C)C(=O)N4C)CC2)c1	inconclusive: -44.2%
CCC(=O)c1cn([C@H](CCC(OC)OC)CC(=O)OC(C)(C)C)cc1CC	inconclusive: -33.2%
Cc1nc(N2CCN(Cc3ccc4c(c3)OCO4)CC2)nc2c1C(=O)CC(c1ccco1)C2 (configuration not stated)	active: -72.5%
Cc1ccc(S(=O)(=O)N(C)CC(=O)NC2CCCC2)cc1	inconclusive: -42.7%
CCOC(=O)CN(C(=O)CSc1nnc(-c2ccncc2)n1CCCN(C)C)c1ccccc1	inconclusive: -42.8%
C=CCNC(=O)C1CC(=O)N(c2ccc(Br)cc2)C1 (configuration not stated)	inconclusive: -36.2%
COc1cc(C(c2c(C)[nH][nH]c2=O)c2c(C)[nH][nH]c2=O)ccc1OS(=O)(=O)c1ccc(C)cc1	inconclusive: -37.5%
O=C(N/N=C/C1CC2CCC1C2)c1c[nH]c2ccccc12 (configuration not stated)	inconclusive: -31.6%
O=C(Nc1cccc([N+](=O)[O-])c1)c1ccc2nc(N3C(=O)CCC3=O)sc2c1	inconclusive: -49.2%
Cc1ccc(C)c(S(=O)(=O)Nc2nc(C)c(C(=O)Nc3ccccc3)s2)c1	inconclusive: -38.4%
CC(C)(C)c1cc(C(=O)N/N=C/c2ccc(-c3ccccc3[N+](=O)[O-])o2)n[nH]1	inconclusive: -38.3%
COc1cc(OC)cc(C2=Cc3ccccc3C(CC(=O)c3ccco3)N2c2ccc(-c3ccc(C(N)=O)cc3)cc2)c1 (configuration not stated)	inactive: -11.8%
Cc1c(OC(C)C(=O)N[C@H](C(=O)O)c2ccccc2)ccc2c3c(c(=O)oc12)CCCC3 (some centres not stated)	inconclusive: -45.2%
COCc1cc(=O)n2[nH]c(C)c(-c3ccc(Cl)cc3)c2n1	active: -60.5%
O=C1C=C(c2ccc3ncccc3c2)C[C@@H](c2ccc(Cl)cc2)C1	inactive: -7.11%
Cn1ccnc1Sc1cc(NCCCO)c([N+](=O)[O-])c2nonc12	active: -112%
COc1ccc2c(C(=O)c3ccc(C)cc3)n(Cc3ccc(C(N)=O)cc3)[n+]([O-])c2c1	inconclusive: -33.4%
Cc1cc(O)c(C(C)C)cc1NC(=O)c1cccc(Cl)c1	inconclusive: -38%
CCc1cc(=O)oc2cc(OCC(=O)N3CCC[C@H]3C(=O)O)ccc12	inconclusive: -33.3%
Cc1ccc(S(=O)(=O)NCCC(=O)Nc2ccc3c(c2)OCO3)cc1	inconclusive: -35.5%
N#Cc1ccc(NC(=O)Cn2c3[n+](c4ccc(C(F)(F)F)cc42)CCCCC3)cc1	inconclusive: -31.8%
Cc1ccc(C(=O)Nc2nnc(C3=COCCO3)o2)cc1C	inconclusive: -49%

Structure (SMILES)	max response, negative = inhibition
CCOC(=O)CN1C(=O)S/C(=C/c2cccc([N+](=O)[O-])c2O)C1=O	inconclusive: -38.2%
Cc1ccc(NC(=O)CN2CCC(C(=O)c3ccc(F)cc3)CC2)cc1	active: -68.6%
CCN(CC)C(=O)C1=C(C)N(Cc2ccc(OC)cc2)C(=O)C(CC(=O)NCc2cccc3ccccc23)C1 (configuration not stated)	inconclusive: -39.6%
Cc1cc(O)c(C(C)C)cc1NC(=O)Cn1nc(C)c2ccccc2c1=O	inconclusive: -38.6%
O=C(Nc1ccccc1Cl)c1cc(C2CCCCN2S(=O)(=O)c2ccc(F)cc2F)on1 (configuration not stated)	inactive: -20.4%
Cc1ccc(C2/C(=C(\O)c3c(C)nc4c(C)cccn34)C(=O)C(=O)N2CCN(C)C)o1 (configuration not stated)	inactive: 0%
CC1(C)NC(=O)N(CC(=O)N2CCN(S(=O)(=O)c3ccccc3C(F)(F)F)CC2)C1=O	inconclusive: -36.7%
CC1=NN(c2ccccc2)C(=O)C1N=Nc1ccc(N)cc1 (configuration not stated)	active: -59.7%
O=C(CNS(=O)(=O)c1ccccc1)N1CCc2ccccc2C1	inconclusive: -30.7%
Cc1cccc(NCC(O)Cn2cnc3c2c(=O)n(C)c(=O)n3C)c1 (configuration not stated)	inconclusive: -33%
C/C(=N\OCc1nc2ccccc2c(=O)n1/N=C/c1cc(C)cc([N+](=O)[O-])c1O)c1ccccc1	inactive: -5.72%
CCCCCC(C)n1[nH]c(=O)cc1N (configuration not stated)	active: -109%
Cc1ccc(C(=O)C2CCN(S(=O)(=O)c3c(C)noc3C)CC2)cc1	inconclusive: -34.7%
COC(=O)[C@@]12C[C@@H](CC(=O)NCc3ccccc3)C(=O)N(Cc3ccc4c(c3)OCO4)C1=CCC(C)(C)C2	inconclusive: -35.8%
COc1ccc(C(=O)OCC(=O)c2ccc3c(c2)NC(=O)CO3)cc1[N+](=O)[O-]	inconclusive: -31.8%
NNCCc1ccccc1	active: -113%
COc1ccc(CC(=O)N2CCN(S(=O)(=O)c3cc(Cl)ccc3Cl)CC2)cc1	inactive: 31%
CN1CCN(CC(=O)N2CCn3c4c(c5cc(C6CCCCC6)ccc53)CCCC42)CC1 (configuration not stated)	active: -65.3%
CCC(=O)c1ccc(OCC(O)CN(CCc2ccccc2)Cc2ccccc2)cc1 (configuration not stated)	inconclusive: -37.3%
COc1cc(C(=O)Nc2nc3ccc(S(=O)(=O)N4CCOCC4)cc3s2)cc(OC)c1OC	inconclusive: -46.1%
CN1CCN(C(=O)CCCOc2ccc(Cl)cc2Cl)CC1	active: -53.3%
COC(=O)c1cnn(C(=O)c2ccccc2Br)c1N	inconclusive: -30.4%
COc1ccccc1C(CNC(=O)CNC(=O)c1ccc(Cl)c(Cl)c1)N1CCCC1 (configuration not stated)	inconclusive: -34.7%
COCCN(C(=O)COC(=O)c1cnc(C)cn1)c1c(N)n(Cc2ccccc2)c(=O)[nH]c1=O	active: -77.1%
O=C(CN1CCN(c2ccccc2)CC1)N1CCc2[nH]c3ccccc3c2C1	inconclusive: -30.8%
O=C1COc2cc(ccc2[N+](=O)[O-])Oc2ccc(cc2Cl)C(=O)CCCCO1	inconclusive: -38.6%

Ordered by molecular weight (ascending): some entries from above
Structure (SMILES)	max response, negative = inhibition
C=CCNC(=O)C1CC(=O)N(c2ccc(Br)cc2)C1 (configuration not stated)	inconclusive: -36.2%
Cc1ccc(C2/C(=C(\O)c3c(C)nc4c(C)cccn34)C(=O)C(=O)N2CCN(C)C)o1 (configuration not stated)	inactive: 0%
CCC(C)(C)n1nnnc1C(c1cccc(C#N)c1)N1CCN(c2cc(C)ccc2C)CC1 (configuration not stated)	active: -60.2%

Reference: PubChem BioAssay AID652054 (National Center for Advancing Translational Sciences (NCATS), 2013)
